Test results: PubChem BioAssay AID743255 (National Center for Advancing Translational Sciences (NCATS), 2014)
Several values for one entry are separate records, joined by “and”; a condition that tells them apart may be missing. Equal values may be shown once. In all, about 390,000 compounds went through this assay and about 910 (0.23%) were called active. The inconclusive results got no clear call from the source; some entries with a clear call stand among them for comparison. Calls follow the shape of the dose curve; as a rule, active = well fitted inhibition curve with a large enough effect; inconclusive = small, poorly fitted or top-dose-only effect; inactive = no such curve, though single readings can be large or run the other way. Potencies beside an inconclusive call are fits to weak or partial responses and may not hold up.

Amino acid sequences for entries named in this document (tags omitted). A change or cut given only in a name is not applied to a line headed by its entry.
UniProt O94782: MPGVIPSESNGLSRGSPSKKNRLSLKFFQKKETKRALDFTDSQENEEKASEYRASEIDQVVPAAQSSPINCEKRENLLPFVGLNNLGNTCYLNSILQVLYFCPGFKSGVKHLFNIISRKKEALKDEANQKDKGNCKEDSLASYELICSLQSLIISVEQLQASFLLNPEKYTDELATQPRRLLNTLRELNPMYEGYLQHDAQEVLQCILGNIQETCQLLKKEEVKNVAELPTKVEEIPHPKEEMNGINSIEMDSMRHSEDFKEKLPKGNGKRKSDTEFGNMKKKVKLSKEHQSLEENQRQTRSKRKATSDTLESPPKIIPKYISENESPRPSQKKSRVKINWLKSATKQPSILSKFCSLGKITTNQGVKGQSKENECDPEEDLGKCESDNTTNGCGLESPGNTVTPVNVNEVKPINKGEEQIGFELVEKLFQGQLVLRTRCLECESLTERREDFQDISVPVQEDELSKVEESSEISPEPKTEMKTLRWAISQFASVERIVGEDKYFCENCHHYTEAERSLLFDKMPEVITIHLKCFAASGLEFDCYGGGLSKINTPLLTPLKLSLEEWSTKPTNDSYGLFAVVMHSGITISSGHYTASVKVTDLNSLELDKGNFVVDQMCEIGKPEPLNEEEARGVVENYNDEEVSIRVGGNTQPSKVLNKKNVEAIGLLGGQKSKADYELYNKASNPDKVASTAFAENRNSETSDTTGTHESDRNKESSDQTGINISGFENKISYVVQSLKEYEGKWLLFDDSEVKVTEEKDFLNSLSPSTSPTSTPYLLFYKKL

The molecules below were run against Ubiquitin carboxyl-terminal hydrolase 1 (Homo sapiens) (UniProt O94782) (assay: Inhibitors of USP1/UAF1: Primary Screen). Settings: recombinant USP1/UAF1, Ub-Rhodamine cleavage fluorescence; series mostly up to 57.1 µM.
In short: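 In this screen, compounds sit with the deubiquitinase complex (1nM) for 15 min at room temperature before Ub-Rho is added at 150nM final. Fluorescence rise is then followed for 6 reads every 60 seconds.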
Also: nearly all actives have a fitted effect of over 60% in size.
Potency is read from the fitted curve at half-maximal effect.

Row | SMILES | Potency
1 | Cc1ccc(CNc2nc(-c3cccnc3)nc3ccccc23)cc1 | inconclusive: 0.708 µM [inhibitor, full curve, poor fit]
2 | CCOC(=O)c1c(C)[nH]c(C2=NNC(=Nc3ccccc3OC)SC2)c1C | inconclusive: 15.8 µM [inhibitor, partial curve, poor fit]
3 | O=C(/C=C\c1ccc2c(c1)OCO2)NC1CC(=O)N(c2cccc(F)c2)C1 (stereo not drawn) | inconclusive: 0.891 µM [inhibitor, full curve, poor fit]
4 | Cc1ccc(NC(=O)Cn2c(=O)n(-c3ccccc3)c(=O)c3ccc(C(=O)NCc4ccc5c(c4)OCO5)cc32)c(C)c1 | inactive
5 | Cc1cccc(CNC(=O)c2ccc(NC(=O)N3CC(C)Sc4ccccc43)cc2)c1 (stereo not drawn) | inconclusive: 2.24 µM [inhibitor, partial curve]
6 | COc1ccc2nc(C)cc(N3CCN(c4ccccc4)CC3)c2c1 | inactive
7 | CC(C)c1ccc(OCC(=O)Nc2cccc(C(=O)Nc3ccccc3C(=O)O)c2)cc1 | inconclusive: 39.8 µM [inhibitor, partial curve]
8 | CC(CNC(=O)Cc1ccc(NC(=O)N2CCSc3ncccc32)cc1)c1ccccc1 (stereo not drawn) | inconclusive: 0.708 µM [inhibitor, full curve]
9 | COCCCNCCCCOc1ccc(Br)cc1C | inactive
10 | CC(C)(C)CN1C(=O)C(=O)NC[C@H]1Cc1cccc2ccccc12 | inconclusive: 39.8 µM [inhibitor, partial curve, poor fit]
11 | O=C(Nc1ccnn1C1CCN(C(=O)c2cccnc2)CC1)c1cccc(F)c1 | inconclusive: 0.224 µM [inhibitor, full curve, poor fit]
12 | O=C(NCc1ccc(Cl)cc1)C1CCN(S(=O)(=O)Cc2ccccc2)CC1 | inactive
13 | Nc1nc(=S)c2ncn([C@@H]3O[C@H](CO)[C@@H](O)[C@H]3O)c2[nH]1 | inactive
14 | Cc1ccc(C(=O)Nc2nc(=O)n(C)s2)cc1 | inactive
15 | Cc1nc2ccccc2c2c1C(=O)N(c1ccc(C(=O)O)cc1)C2=O | inconclusive: 31.6 µM [inhibitor, partial curve]
16 | O=C(c1nn2c(C(F)(F)F)cc(-c3ccco3)nc2c1Br)N1CCCc2ccccc21 | inconclusive: 12.6 µM [inhibitor, partial curve, poor fit]
17 | COc1ccc(NC(=S)NC(=O)c2cncc(Br)c2)cc1 | inconclusive: 35.5 µM [inhibitor, partial curve, poor fit]
18 | Cc1nc2c(-c3ccccc3)c(C)nn2c(C)c1CCC(=O)NCc1ccc(F)cc1 | inconclusive: 2.82 µM [inhibitor, full curve]
19 | Cc1ccc(S(=O)(=O)Nc2ccc(C(N)=O)cc2)cc1[N+](=O)[O-] | inactive
20 | CCOC(=O)c1oc2ccccc2c1COC(=O)CNC(=O)c1cccc(C)c1 | inactive
21 | CCc1ccc(C2C(C#N)=C(N)C(C#N)(C#N)C3=CCC(C(C)(C)C)CC32)cc1 (stereo not drawn) | inconclusive: 50.1 µM [inhibitor, single point]

Another view of some results above.
Row,SMILES,Potency
10,CC(C)(C)CN1C(=O)C(=O)NC[C@H]1Cc1cccc2ccccc12,"inconclusive: 39.8 µM [inhibitor, partial curve, poor fit]"
11,O=C(Nc1ccnn1C1CCN(C(=O)c2cccnc2)CC1)c1cccc(F)c1,"inconclusive: 0.224 µM [inhibitor, full curve, poor fit]"
12,O=C(NCc1ccc(Cl)cc1)C1CCN(S(=O)(=O)Cc2ccccc2)CC1,inactive

More compounds.

Row | SMILES | Potency
22 | O=C(CN(C(=O)CSc1nnc(COc2ccccc2)o1)c1ccc(F)cc1)NC1CCCCC1 | inconclusive: 0.398 µM [inhibitor, full curve, poor fit]
23 | Cc1c(OCC(=O)N[C@@H](Cc2c[nH]c3ccccc23)C(=O)O)ccc2c1oc(=O)c1ccccc12 | inconclusive: 0.355 µM [inhibitor, full curve, poor fit]
24 | O=C(NCCN1C(=O)S/C(=C\c2ccc(Cl)c(Cl)c2)C1=O)C1COc2ccccc2O1 (stereo not drawn) | inconclusive: 4.47 µM [inhibitor, partial curve]
25 | O=C(Nc1sc2c(c1C(=O)O)CCCC2)c1ccc(F)cc1 | inactive
26 | CC(C)CCN(C(=S)Nc1cccc(F)c1)C1CCN(C(C)C)CC1 | inconclusive: 2.82 µM [inhibitor, full curve, poor fit]
27 | CCOc1ccc(-c2n[nH]c(=S)o2)cc1 | inconclusive: 5.01 µM [inhibitor, single point]
28 | COc1ccc(C)cc1NC(=O)NCc1cccn1Cc1ccccc1 | inactive
29 | COc1cccc(-c2nc(NC(C)C)c3ccccc3n2)c1O | inconclusive: 31.6 µM [inhibitor, partial curve]
30 | CCc1ccccc1NC(=O)C1CCN(S(=O)(=O)c2ccc3[nH]c(=O)ccc3c2)CC1 | inconclusive: 141 µM [inhibitor, partial curve, poor fit]
31 | CC(C)(C)c1ccc(C(=O)Nc2cc(-c3nc4ccccc4o3)ccc2Cl)cc1 | inconclusive: 10 µM [inhibitor, partial curve]
32 | NC(=O)c1ccc(N=Cc2c(O)ccc3ccccc23)cc1 | inconclusive: 89.1 µM [inhibitor, partial curve, poor fit]
33 | Nc1ccc(C(=O)NCCCCCCNC(=O)c2ccc(N)cc2)cc1 | inactive
34 | CCCN(CCC)S(=O)(=O)c1ccc(C(=O)OCCN2C(=O)c3cccc4c(N5CCOCC5)ccc(c34)C2=O)cc1 | inconclusive: 3.55 µM [inhibitor, partial curve, poor fit]
35 | CN1CCN(c2ccc(NC(=O)c3cccs3)cc2)CC1 | inconclusive: 1.12 µM [inhibitor, partial curve]
36 | Cc1cc(C)c2c(-c3ccc(F)cc3)c(C#N)c(=O)n(C)c2n1 | inconclusive: 10 µM [inhibitor, partial curve]
37 | COc1cc(-c2cccs2)cc(=O)c2c(C)oc(C)c12 | inconclusive: 28.2 µM [inhibitor, single point]
38 | CCOC(=O)c1c(NC(=O)CSc2ncccn2)sc2c1CCN(Cc1ccccc1)C2 | inconclusive: 50.1 µM [inhibitor, partial curve, poor fit]
39 | Cc1ccc(C)c(NC(=O)CSc2nc(-c3ccccc3)cc(=O)[nH]2)c1 | inconclusive: 1 µM [inhibitor, full curve]
40 | O=S(=O)(NC1CC1)c1ccc(S(=O)(=O)N2CCCc3ccccc32)cc1 | inconclusive: 28.2 µM [inhibitor, single point]
41 | COc1ccc(S(=O)(=O)N2CCN(C/C=C/c3ccccc3)CC2)cc1NC(C)=O | inactive
42 | O=C(NC1CCCCCCC1)c1cccs1 | inconclusive: 0.355 µM [inhibitor, full curve, poor fit]

Row | SMILES | Potency
43 | CCN(C(=O)c1cc2cc3ccc(OC)cc3nc2o1)c1cccc(C)c1 | inconclusive: 8.91 µM [inhibitor, partial curve]
44 | Oc1ccc(/C=N/N2CCN(C3c4ccccc4-c4ccccc43)CC2)c(O)c1 | inconclusive: 7.94 µM [inhibitor, full curve, poor fit]
45 | CCN(C[C@H]1N[C@@](Cc2ccccc2)(C(=O)OC)[C@H]2C(=O)N(Cc3ccccc3)C(=O)[C@@H]12)C(=O)Nc1ccc(C(F)(F)F)cc1 | inconclusive: 10 µM [inhibitor, partial curve]
46 | CCCCCCCCCCCCCCCCn1cc[n+](C)c1 | inconclusive: 44.7 µM [inhibitor, partial curve] and inconclusive: 35.5 µM [inhibitor, partial curve]
47 | CCN(C(=O)COC(=O)CNC(=O)c1ccc2ccccc2c1)C1CCS(=O)(=O)C1 (stereo not drawn) | inactive
48 | Cc1ccc2c(c1)COc1c3ccc(C(=O)O)cc3nn1-2 | inconclusive: 2.51 µM [inhibitor, full curve, poor fit]
49 | CN(C)c1ccc(N=Cc2nc(-c3ccccc3)oc2O)cc1 | inactive
50 | COc1cccc(NC(=O)c2c(N3CCCC3=O)c3cc(C)ccc3n2C)c1 | inconclusive: 11.2 µM [inhibitor, full curve, poor fit]
51 | O=C(CSc1nc2ccccc2nc1Cc1ccccc1)Nc1ccccc1C(F)(F)F | inconclusive: 0.398 µM [inhibitor, full curve, poor fit]
52 | COc1ccc(-c2cc(OC)c3c(C)oc(C)c3c(=O)c2)cc1OC | inconclusive: 35.5 µM [inhibitor, partial curve, poor fit]
53 | CC1(C)Oc2ccc(C(=O)Nc3ccccc3F)cc2N(CC(=O)N2CCOCC2)C1=O | inconclusive: 7.08 µM [inhibitor, partial curve, poor fit]
54 | COCCCN=C1NN=C(c2cc(C)n(-c3ccccc3)c2C)CS1 | inactive
55 | O=C1ON=C(c2ccccc2)/C1=C\c1ccco1 | inconclusive: 39.8 µM [inhibitor, single point]
56 | Cc1cccc(Sc2ccc([N+](=O)[O-])cc2[N+](=O)[O-])n1 | inactive
57 | CCOC(=O)CCCN1C(=O)CCn2nc(-c3cn(C)c4ccccc34)cc21 | inconclusive: 79.4 µM [inhibitor, partial curve, poor fit]
58 | Cc1cc(C)n(S(=O)(=O)c2cc(C(=O)O)c(Cl)cc2Cl)n1 | inconclusive: 0.891 µM [inhibitor, full curve, poor fit]
59 | CCCCN(C)C(=O)c1ccc2c(c1)N(Cc1ccc(F)cc1)C(=O)c1ccccc1S2(=O)=O | inactive
60 | CC(C)Oc1ccc(CNC(=O)C2CCCCN2S(=O)(=O)c2ccc(F)cc2)cc1 (stereo not drawn) | inconclusive: 11.2 µM [inhibitor, partial curve]
61 | CCC(=O)C1CCCN(C(=O)CCc2nnc(-c3ccc4c(c3)OCO4)o2)C1 (stereo not drawn) | inactive
62 | CCCCCOc1ccc(N2C(=O)C3C4C=CC(C3C2=O)N(C)C4=O)cc1 (stereo not drawn) | inconclusive: 44.7 µM [inhibitor, partial curve, poor fit]
63 | CCCCc1oc2c(c(=O)c1C)C(=O)CC(c1ccccc1)C2 (stereo not drawn) | inconclusive: 0.631 µM [inhibitor, full curve, poor fit]
